Paper PMC8213698
These are yes or no findings as the source states them, for the method shown. In cells and extracts the contact can be indirect. A result given as binding can be weak or reduced; the word gives no strength.

Molecular target: T1, Irisin (UniProt Q8NAU1)
T1 sequence: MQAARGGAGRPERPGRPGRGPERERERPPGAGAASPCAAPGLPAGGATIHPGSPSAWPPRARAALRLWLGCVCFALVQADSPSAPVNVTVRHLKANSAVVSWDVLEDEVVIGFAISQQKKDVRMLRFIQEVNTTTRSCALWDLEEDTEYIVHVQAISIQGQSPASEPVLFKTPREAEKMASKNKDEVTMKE
Experiment: co-IP; lysate of BM-MSCs (Irisin-overexpressing against negative controls) in immunoprecipitation buffer with DNase I and protease inhibitors; 5 µg antibody against Irisin or Integrin αV at 4 °C overnight, Protein A agarose beads 2 h at room temperature; SDS-PAGE and WB

binding: binds
Substance: Integrin αV (human (endogenous in BM-MSCs)) (receptor)
